From the supplement of paper PMC12024529 come the findings set out here.

Structures can show the parent of a compound that is named as a salt. The list shows a part of the results. Baselines shift from plate to plate; read single values as rough.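 Wild-type or misfolding-prone missense mutant B-domain-deleted factor VIII, fused to Gaussia luciferase, is stably expressed in HEK293 lines. Each score is (mean triplicate-well luminescence minus DMSO mean) divided by DMSO standard deviation. Hits score at least 2; lower scores could stem from decreased secretion or poorer cell viability.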

The test relates to HEK293 p.N1941S BDD-FVIII-Gluc. The experiment in a line: secreted FVIII-Gluc luciferase Z-score vs DMSO control; higher = more FVIII-Gluc secretion. The conditions noted are these: 5 µM; 24 h.
Regarding `CC(=O)SCC(Cc1ccccc1)C(=O)NCC(=O)OCc1ccccc1` (stereo not given) [Racecadotril (Acetorphan)], the “secreted FVIII-Gluc luciferase Z-score” value was inactive: -5.42.
Next, `CCCCCCCCCCCC[N+](C)(C)CCOc1ccccc1` [Domiphen Bromide]: inactive: 0.111.
Next, `CCCCc1oc2ccccc2c1C(=O)c1cc(I)c(OCCN(CC)CC)c(I)c1` [Amiodarone HCl]: inactive: -1.2.
Next, `Cc1cn(-c2cc(NC(=O)c3ccc(C)c(Nc4nccc(-c5cccnc5)n4)c3)cc(C(F)(F)F)c2)cn1` [Nilotinib (AMN-107)]: inactive: -5.61; `NC(=O)NO` [Hydroxyurea (Cytodrox)]: inactive: -0.497.
